Reference: patent US20060252916A1 (ELI LILLY AND COMPANY, priority 2002, published 2006)

How the values were obtained:
[1] = general procedure: Boc solid-phase peptide synthesis; mbha-resin (Advanced ChemTech); symmetric anhydride and HOBt activated double couplings; conditions: whole synthesis, scale of the general procedure 0.43 mmole
peptide synthesis = conditions: whole synthesis

| Substance | final HPLC purity [1] | final purity (method not given) (peptide synthesis) |
| --- | --- | --- |
| HVEGTFTSDVSSYLEEQAAKEFIAWLIKGRGC(SSO3)-amide | approximate purity of 90% | – |
| HVEGTFTSDVSSYLEEQAAKEFIAWLIKGRGK[3-(2-pyridyldithio)propanamide]-amide | – | approximately 95% |
